Some of the results follow.

The assay has as its target T1, OsSMF1 (Oryza sativa, UniProt Q6ZLB0 1-436).
T1 sequence: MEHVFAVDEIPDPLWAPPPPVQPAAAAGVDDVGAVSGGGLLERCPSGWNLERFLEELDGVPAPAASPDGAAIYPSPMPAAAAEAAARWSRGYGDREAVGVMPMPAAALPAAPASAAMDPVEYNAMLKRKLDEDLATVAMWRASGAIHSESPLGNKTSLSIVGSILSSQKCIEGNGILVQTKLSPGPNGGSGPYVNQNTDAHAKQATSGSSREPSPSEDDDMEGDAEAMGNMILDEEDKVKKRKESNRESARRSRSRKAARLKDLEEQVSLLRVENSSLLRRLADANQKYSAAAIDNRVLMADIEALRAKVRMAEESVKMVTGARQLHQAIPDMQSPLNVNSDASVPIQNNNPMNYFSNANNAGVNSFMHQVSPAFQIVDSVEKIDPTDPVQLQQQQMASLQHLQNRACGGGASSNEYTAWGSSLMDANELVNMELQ
Put plainly: protein-binding microarray (RPBM); PBS, 2% BSA, 51.3 ng/ul salmon testes DNA, 50 uM zinc acetate, 200 nM TF, 25 C, 1 h; high values mean tight binding. Particulars: protein: recombinant; tags: N-terminal polyhistidine and DsRed monomer fusion (pET32a); chain copies: 2; label: CyDye5-dUTP incorporated in the synthesized complementary strand; 3' TTTTT single-stranded linker to array surface; dsDNA, one strand shown. Put shortly:
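The binding signal for each feature is its fluorescence intensity in arbitrary units. An Axon 4000B scanner was used to read a custom Agilent array that had been made double-stranded with Cy5-dUTP primer extension, blocked with 2% BSA, incubated at 25 °C for 1 h with 200 nM protein in PBS, 2% BSA, salmon testes DNA and 50 µM zinc acetate, and washed. The protein was an N-terminal polyhistidine–DsRed transcription factor fusion from E. coli BL21-CodonPlus, purified on Ni–NTA.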
For the sequence “CGCCCGCCCGCCGGTCGCTGCGCCAGACGACCACTAAGCCCGGAGTCACCTAGTGCAG”, the binding signal was 3340 fluorescence intensity (a.u.). For “CGGCCGGCCGTGGATGACGTCGTTGCTGCCCTTACCACTGCGGAGTCACCTAGTGCAG”, the binding signal is 5340 fluorescence intensity (a.u.). For “TAGCATTAGCATAAGGGAGGGAGGGAGGGAGGGATCATTACGGAGTCACCTAGTGCAG”, the binding signal was 3670 fluorescence intensity (a.u.).

Regarding “CTAAAATACCGTACACTGTTTCACTTGTGTTCACTCCCAACGGAGTCACCTAGTGCAG”, the binding signal is 12700 fluorescence intensity (a.u.). “ACACACCCGCGCCGTTCCTGCGCGCCTTGTTCGCGTCCATCGGAGTCACCTAGTGCAG”: the binding signal was 26500 fluorescence intensity (a.u.). As to “TGCTGCTGCTGCATAGGTTCTACACGGAGTGCCTTGGGATCGGAGTCACCTAGTGCAG”, the binding signal was 4490 fluorescence intensity (a.u.). Turning to “AATGCCTAATACAGTAGTACAGTACTACAGTAATAACCTGCGGAGTCACCTAGTGCAG”, the binding signal is 3180 fluorescence intensity (a.u.). Take “AAATATTAAGTTATTATATCATAGCGTGGAAGAGCTGCTACGGAGTCACCTAGTGCAG”: the binding signal was 12600 fluorescence intensity (a.u.).

Consider “GTATATATTTAGTGTAACAAAGTGCTGTAATGACTGTCATCGGAGTCACCTAGTGCAG”, for which the binding signal is 3420 fluorescence intensity (a.u.). Regarding “GAAATTGATGTTGATGCATTGGCTGACTCAGTTGGTAATGCGGAGTCACCTAGTGCAG”, the binding signal was 12300 fluorescence intensity (a.u.).

As for “ATAAATTTGGACGCATCCCAAAATTCGGCAAACATATGACCGGAGTCACCTAGTGCAG”, the binding signal was 39200 fluorescence intensity (a.u.). Turning to “GCAATTAATGATTTGCCACACCCTATCAATGACATGTGGGCGGAGTCACCTAGTGCAG”, the binding signal is 3720 fluorescence intensity (a.u.). As for “ACTGACATCGAGGCCCCACGTGTCAGTGACCCAGTTCTTTCGGAGTCACCTAGTGCAG”, the figure is 13400 fluorescence intensity (a.u.); as for “TGGTTCAAAATGTAAACATTAGTTAAATGGTGATCCAAAGCGGAGTCACCTAGTGCAG”, 49900 fluorescence intensity (a.u.). With “GACCACACCAAAACTGCAATCACCTCACTCATCCAGTCATCGGAGTCACCTAGTGCAG”, the binding signal is 5260 fluorescence intensity (a.u.).

For the sequence “CGGCCAAGTGTGACCCGGCGTCACACCGATAATCGGCTGGCGGAGTCACCTAGTGCAG”, the binding signal was 3480 fluorescence intensity (a.u.). As for “TCTGATCCGCTTTGCGTGGCCACTAACTCGGCCGCTACAGCGGAGTCACCTAGTGCAG”, the figure is 3210 fluorescence intensity (a.u.); as for “GGGGTGGTGCGAATTTGCCACGAGTTCACGTGATGAGTGTCGGAGTCACCTAGTGCAG”, 4100 fluorescence intensity (a.u.); as for “TCCCATCCACCTCCATCGCCGCCGCCGCCGCGTATGCGCCCGGAGTCACCTAGTGCAG”, 4280 fluorescence intensity (a.u.).

Turning to “TCTTCATGGTATATATGCACGCGCCAACTCACCACCACATCGGAGTCACCTAGTGCAG”, the binding signal is 8510 fluorescence intensity (a.u.).

For the sequence “CCCATCTACCCACCCTCCGACACGTGGGCCCCACCCCGACCGGAGTCACCTAGTGCAG”, the binding signal was 11000 fluorescence intensity (a.u.). Consider “TCGCGTTCCATCGCCACGCCGCATGACGTCGCCCGTGTCACGGAGTCACCTAGTGCAG”, for which the binding signal is 7720 fluorescence intensity (a.u.). As for “TTCCTGCCGCAGTTGCCGACTTTGCAGTGCCCCGTGCCAACGGAGTCACCTAGTGCAG”, the figure is 6020 fluorescence intensity (a.u.).

As to “TTGGGTTCTTGATATAACTGGTGGAAATGGCGAGGTAATTCGGAGTCACCTAGTGCAG”, the binding signal was 3220 fluorescence intensity (a.u.). In the case of “CGCTTCTTCCTGAGCTGACGTAGGCTACCATGTGTGCCCTCGGAGTCACCTAGTGCAG”, the binding signal was 5860 fluorescence intensity (a.u.). With “TTGGACATGATTTTGGCCAACTAGGATTACATCATATTACCGGAGTCACCTAGTGCAG”, the binding signal was 4320 fluorescence intensity (a.u.). For “GAATCTTTTAGCTCGGATTGCGTGTCTACAAGGCTCCATTCGGAGTCACCTAGTGCAG”, the binding signal was 3980 fluorescence intensity (a.u.).

Regarding “CCGTCGTCGTCGTCGTGGCGGCGAGCAGGCTGTTGAGCTCCGGAGTCACCTAGTGCAG”, the binding signal is 4780 fluorescence intensity (a.u.). On to “CCAACAATTATTCATATATAAGAAGATTTCAACGTGTACTCGGAGTCACCTAGTGCAG”, for which the binding signal was 4210 fluorescence intensity (a.u.). Regarding “TCAAACACTCGACACGTGGCGCGCCTCCCAGCCGTCCGATCGGAGTCACCTAGTGCAG”, the binding signal is 6920 fluorescence intensity (a.u.). As for “TGTATACCACATCACTGACATTACGATGTATATATATACCCGGAGTCACCTAGTGCAG”, the figure is 4270 fluorescence intensity (a.u.); as for “CTCCGTTGTGCTCTGTCTCTCTACCGCCACCATCCACTGCCGGAGTCACCTAGTGCAG”, 39200 fluorescence intensity (a.u.). Consider “TCGCGCCGCCGCCGCCGCCGCGTAGTCATCGAGTCGAGCACGGAGTCACCTAGTGCAG”, for which the binding signal is 4980 fluorescence intensity (a.u.).

In the case of “CATCCACCGCCACCGCCACCGCCACCGCCACCTCACCACCCGGAGTCACCTAGTGCAG”, the binding signal was 6020 fluorescence intensity (a.u.). As for “CGGCGACAGCGTATCCAACGTAGGCTCGGGCCCACGTCGCCGGAGTCACCTAGTGCAG”, the figure is 4100 fluorescence intensity (a.u.); as for “CGCTCCGCAGCCCACGCGAGCCACGCTGACGCGTAGGCCCCGGAGTCACCTAGTGCAG”, 5570 fluorescence intensity (a.u.); as for “GACATGAATTTTCCATCATATATTCATGCGGTTCATTATGCGGAGTCACCTAGTGCAG”, 4430 fluorescence intensity (a.u.). In the case of “TACCATAATCTACCATTACAGACACTGACGTGTGAGACAACGGAGTCACCTAGTGCAG”, the binding signal is 8050 fluorescence intensity (a.u.).

Take “AGTTAAAGTTCAGAGTTGAAGAATAGAACTGGGTCTAATACGGAGTCACCTAGTGCAG”: the binding signal is 26900 fluorescence intensity (a.u.). In the case of “AGAATCGCTTATATTATGGGACGGACGTAACATATAGAAGCGGAGTCACCTAGTGCAG”, the binding signal was 41100 fluorescence intensity (a.u.).

For the sequence “ATGTGATGATTGTTAGTGGATGATGATGTGGCATCTTGTTCGGAGTCACCTAGTGCAG”, the binding signal was 27000 fluorescence intensity (a.u.). As for “CCTTGCAAACATGTCCTTCGTTTCCGTATCATGCGATTGGCGGAGTCACCTAGTGCAG”, the figure is 3530 fluorescence intensity (a.u.).

The values are drawn from publication PMC7819943, “Rice protein-binding microarrays: a tool to detect cis-acting elements near promoter regions in rice”.
